Experimental findings from paper PMC4893161, “The Dynamic Localization of Cytoplasmic Dynein in Neurons Is Driven by Kinesin-1” (Neuron, 2016) are described below.

Chains of the proteins cited; added tags and fusions are not shown.
UniProt O88485: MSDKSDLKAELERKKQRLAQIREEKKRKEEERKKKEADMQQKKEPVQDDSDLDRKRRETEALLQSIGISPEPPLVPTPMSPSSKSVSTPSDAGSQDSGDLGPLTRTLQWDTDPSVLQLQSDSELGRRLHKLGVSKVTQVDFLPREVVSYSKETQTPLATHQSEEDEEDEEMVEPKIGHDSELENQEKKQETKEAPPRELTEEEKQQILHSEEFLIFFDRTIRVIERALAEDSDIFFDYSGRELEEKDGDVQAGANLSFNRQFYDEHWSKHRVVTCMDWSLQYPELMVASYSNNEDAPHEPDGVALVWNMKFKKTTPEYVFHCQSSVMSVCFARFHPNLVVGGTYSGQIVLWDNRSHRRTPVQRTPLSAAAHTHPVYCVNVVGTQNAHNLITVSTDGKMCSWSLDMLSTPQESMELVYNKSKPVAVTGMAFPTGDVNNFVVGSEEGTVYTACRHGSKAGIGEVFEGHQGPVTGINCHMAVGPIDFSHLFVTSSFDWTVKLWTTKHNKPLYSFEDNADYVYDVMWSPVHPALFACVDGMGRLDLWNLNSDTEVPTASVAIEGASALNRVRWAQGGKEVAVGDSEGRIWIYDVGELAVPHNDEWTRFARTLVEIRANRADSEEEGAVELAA
UniProt Q9JHU4: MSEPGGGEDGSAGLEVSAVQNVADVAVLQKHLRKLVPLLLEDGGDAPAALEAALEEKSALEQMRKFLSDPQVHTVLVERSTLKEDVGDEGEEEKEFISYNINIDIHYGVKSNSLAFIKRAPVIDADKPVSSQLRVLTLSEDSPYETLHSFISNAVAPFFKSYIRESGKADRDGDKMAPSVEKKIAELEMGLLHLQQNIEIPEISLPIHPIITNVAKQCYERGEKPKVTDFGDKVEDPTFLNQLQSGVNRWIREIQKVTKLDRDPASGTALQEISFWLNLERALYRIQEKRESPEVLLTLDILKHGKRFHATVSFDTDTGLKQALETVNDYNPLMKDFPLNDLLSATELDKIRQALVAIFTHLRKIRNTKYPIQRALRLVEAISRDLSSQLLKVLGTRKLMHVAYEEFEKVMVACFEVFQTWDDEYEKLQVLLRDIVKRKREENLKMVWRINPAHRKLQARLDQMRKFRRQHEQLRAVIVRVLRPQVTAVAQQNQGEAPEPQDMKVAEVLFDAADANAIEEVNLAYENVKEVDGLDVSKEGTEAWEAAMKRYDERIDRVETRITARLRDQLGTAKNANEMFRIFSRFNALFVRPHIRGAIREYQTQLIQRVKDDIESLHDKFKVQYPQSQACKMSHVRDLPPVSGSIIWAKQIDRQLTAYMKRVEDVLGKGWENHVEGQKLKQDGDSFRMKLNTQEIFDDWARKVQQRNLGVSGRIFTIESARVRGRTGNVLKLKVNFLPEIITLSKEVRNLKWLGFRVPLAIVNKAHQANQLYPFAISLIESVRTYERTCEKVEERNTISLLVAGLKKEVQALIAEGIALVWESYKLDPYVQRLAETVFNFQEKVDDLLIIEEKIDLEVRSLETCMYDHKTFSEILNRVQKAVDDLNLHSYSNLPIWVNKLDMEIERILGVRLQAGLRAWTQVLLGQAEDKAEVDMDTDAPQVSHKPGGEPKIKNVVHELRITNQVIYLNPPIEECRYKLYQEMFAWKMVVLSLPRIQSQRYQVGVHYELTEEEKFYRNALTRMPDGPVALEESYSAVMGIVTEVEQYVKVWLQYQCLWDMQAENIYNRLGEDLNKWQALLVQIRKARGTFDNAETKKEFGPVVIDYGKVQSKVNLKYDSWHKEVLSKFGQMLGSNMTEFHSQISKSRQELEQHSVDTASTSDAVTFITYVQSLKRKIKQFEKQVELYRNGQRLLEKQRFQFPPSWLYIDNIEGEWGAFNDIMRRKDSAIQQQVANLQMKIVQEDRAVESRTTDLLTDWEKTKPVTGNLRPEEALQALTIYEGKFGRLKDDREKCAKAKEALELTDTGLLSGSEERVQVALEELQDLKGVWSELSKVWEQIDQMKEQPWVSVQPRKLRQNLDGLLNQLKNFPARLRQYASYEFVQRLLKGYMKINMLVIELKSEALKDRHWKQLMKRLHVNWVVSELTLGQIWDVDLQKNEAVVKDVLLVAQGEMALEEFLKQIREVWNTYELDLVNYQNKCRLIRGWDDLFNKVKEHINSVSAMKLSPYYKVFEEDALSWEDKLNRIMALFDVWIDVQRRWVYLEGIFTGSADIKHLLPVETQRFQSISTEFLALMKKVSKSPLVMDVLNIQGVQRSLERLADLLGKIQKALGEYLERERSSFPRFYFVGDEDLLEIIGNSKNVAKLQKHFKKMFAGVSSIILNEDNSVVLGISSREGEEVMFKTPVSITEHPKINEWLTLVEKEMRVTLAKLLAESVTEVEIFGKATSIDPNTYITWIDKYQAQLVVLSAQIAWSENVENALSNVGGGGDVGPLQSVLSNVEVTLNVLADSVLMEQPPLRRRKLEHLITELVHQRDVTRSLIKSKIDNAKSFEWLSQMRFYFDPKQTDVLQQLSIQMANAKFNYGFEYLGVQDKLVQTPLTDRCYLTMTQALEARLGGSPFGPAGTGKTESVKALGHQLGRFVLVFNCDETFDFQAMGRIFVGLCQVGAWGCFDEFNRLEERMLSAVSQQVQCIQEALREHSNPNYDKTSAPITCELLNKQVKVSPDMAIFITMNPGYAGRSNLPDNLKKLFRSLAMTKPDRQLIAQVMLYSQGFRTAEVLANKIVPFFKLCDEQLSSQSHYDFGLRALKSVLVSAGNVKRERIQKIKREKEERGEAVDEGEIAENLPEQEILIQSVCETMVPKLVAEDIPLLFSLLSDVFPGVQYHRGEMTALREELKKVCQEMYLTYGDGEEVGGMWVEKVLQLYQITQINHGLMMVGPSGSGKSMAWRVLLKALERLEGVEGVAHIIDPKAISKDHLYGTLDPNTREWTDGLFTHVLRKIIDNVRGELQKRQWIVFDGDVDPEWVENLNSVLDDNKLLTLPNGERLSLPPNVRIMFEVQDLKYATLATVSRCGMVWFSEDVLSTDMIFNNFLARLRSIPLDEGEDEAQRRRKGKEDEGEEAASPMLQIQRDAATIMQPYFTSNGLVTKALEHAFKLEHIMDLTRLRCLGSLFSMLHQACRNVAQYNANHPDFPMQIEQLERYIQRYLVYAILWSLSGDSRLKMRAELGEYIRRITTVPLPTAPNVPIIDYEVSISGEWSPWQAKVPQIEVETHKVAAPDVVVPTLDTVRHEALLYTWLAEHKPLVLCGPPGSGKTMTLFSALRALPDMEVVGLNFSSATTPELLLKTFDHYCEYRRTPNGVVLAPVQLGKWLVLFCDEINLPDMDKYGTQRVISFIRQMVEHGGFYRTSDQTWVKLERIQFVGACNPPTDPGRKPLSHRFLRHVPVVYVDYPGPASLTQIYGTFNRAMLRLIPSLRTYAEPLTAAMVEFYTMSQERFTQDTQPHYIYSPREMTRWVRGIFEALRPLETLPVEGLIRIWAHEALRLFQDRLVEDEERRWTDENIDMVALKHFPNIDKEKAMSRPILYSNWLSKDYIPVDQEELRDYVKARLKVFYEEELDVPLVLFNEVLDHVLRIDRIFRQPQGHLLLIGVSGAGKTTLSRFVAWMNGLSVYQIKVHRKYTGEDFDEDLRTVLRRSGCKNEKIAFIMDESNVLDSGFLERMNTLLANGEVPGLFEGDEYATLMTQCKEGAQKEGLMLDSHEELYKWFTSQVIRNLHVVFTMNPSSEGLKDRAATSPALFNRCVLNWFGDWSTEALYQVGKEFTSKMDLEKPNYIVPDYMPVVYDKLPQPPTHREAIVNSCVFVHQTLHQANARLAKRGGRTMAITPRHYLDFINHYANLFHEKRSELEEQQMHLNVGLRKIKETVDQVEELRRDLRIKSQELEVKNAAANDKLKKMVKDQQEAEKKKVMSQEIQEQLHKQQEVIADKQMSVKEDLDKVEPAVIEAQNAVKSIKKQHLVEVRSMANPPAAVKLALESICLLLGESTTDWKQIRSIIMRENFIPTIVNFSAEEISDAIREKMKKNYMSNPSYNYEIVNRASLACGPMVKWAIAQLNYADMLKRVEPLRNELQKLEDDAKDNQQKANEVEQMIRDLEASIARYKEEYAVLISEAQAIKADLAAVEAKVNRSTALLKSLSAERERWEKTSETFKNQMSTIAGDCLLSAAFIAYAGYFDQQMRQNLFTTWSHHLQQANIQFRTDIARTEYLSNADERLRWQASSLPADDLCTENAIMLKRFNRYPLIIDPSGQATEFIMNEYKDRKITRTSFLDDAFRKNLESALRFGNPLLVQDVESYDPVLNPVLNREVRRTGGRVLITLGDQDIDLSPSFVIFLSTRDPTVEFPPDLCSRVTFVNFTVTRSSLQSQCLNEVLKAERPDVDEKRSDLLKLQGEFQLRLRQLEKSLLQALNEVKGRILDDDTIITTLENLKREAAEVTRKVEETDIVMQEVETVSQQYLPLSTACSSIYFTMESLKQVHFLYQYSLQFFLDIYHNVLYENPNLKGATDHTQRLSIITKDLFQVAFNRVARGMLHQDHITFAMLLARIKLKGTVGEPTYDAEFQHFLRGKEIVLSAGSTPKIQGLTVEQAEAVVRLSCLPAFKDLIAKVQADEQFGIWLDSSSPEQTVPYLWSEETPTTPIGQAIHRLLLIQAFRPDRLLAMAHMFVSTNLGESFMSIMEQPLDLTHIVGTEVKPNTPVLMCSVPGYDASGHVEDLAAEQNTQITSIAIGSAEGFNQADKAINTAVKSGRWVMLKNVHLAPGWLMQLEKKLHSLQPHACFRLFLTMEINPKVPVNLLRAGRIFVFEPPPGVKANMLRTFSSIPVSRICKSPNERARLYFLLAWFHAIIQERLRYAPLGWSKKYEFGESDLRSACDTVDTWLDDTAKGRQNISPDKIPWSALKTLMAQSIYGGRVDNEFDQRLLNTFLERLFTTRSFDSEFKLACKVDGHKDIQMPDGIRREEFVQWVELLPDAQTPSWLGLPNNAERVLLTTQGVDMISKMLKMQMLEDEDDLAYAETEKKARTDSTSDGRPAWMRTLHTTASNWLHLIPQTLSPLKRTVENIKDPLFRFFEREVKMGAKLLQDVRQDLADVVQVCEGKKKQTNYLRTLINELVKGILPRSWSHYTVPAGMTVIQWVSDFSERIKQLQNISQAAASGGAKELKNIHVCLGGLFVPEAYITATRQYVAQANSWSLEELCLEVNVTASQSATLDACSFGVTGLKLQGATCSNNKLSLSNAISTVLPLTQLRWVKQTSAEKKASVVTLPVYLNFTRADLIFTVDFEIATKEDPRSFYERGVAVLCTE

The experiment addresses DIC1 with tandem GFP and 3xFLAG tags at the C terminus, knock-in (dynein-GFP mouse) (mouse) (UniProt O88485). Kind of experiment: co-IP; endogenous complex from high-density fractions 23-24 of the P3 sucrose gradient of dynein-GFP mouse brain; IP with anti-FLAG against the 3xFLAG tag on DIC1.

No constants are given. Whether binding was seen depends on the method and setting. In cells and extracts the contact can be indirect. Some results given as binding are weak or reduced against the parent protein; the word gives no strength.

Turning to “dynein heavy chain (DHC) (from UniProt Q9JHU4 1-4644)”, the binding entry is on record as “binds”.
